# Test results reported in PubChem BioAssay AID504648 (National Center for Advancing Translational Sciences (NCATS), 2011).
# The campaign covered roughly 390,000 compounds. About 610 (0.16%) were called active. The inconclusive results got no clear call from the source; some entries with a clear call stand among them for comparison. Calls follow the shape of the dose curve; as a rule, active = well fitted inhibition curve with a large enough effect; inconclusive = small, poorly fitted or top-dose-only effect, or effect the other way, or another doubt; inactive = no such curve, though single readings can be large or run the other way. Potencies of inconclusive entries are doubtful fits and often do not repeat.
# Assay: Nrf2 qHTS screen for inhibitors: counterscreen for cytotoxicity
# Details: A549 ARE-Fluc cells, CellTiter-Fluor viability, 18-24 h; series mostly up to 46 µM
# Outline: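 A549 ARE_Fluc cells in 5% FBS OPTI-MEM were exposed to compounds in concentration-response for 18-24 h at 37 deg C. Viability was read by CellTiter-Fluor fluorescence (Ex 405/Em 525) after 30 min, before the luciferase read.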
# Potency is read from the fitted curve at half-maximal effect.
row,Compound,Potency
1,CC1=C(C(=O)Nc2ccc(F)cc2)C(c2ccc(N(C)C)cc2)NC(=O)N1 (stereo not given),inactive
2,CCN1C(=O)CC(c2ccccc2)N(C2CCCC2)c2nc(Nc3ccc(C(=O)NC4CCN(C)CC4)cc3OC)ncc21 (stereo not given),"inconclusive: 29.1 µM [falling, single point]"
3,CCn1cc(C(=O)NCc2ccco2)c(=O)c2cc(S(=O)(=O)N3CCC(C)CC3)ccc21,inactive
4,CCc1nc2nc(C)cc(Nc3cc(Cl)ccc3OC)n2n1,inactive
5,CN(C)CCNc1nc2sc3c(c2c(=O)n1CCc1ccccc1)CCCCC3,"inconclusive: 29.1 µM [falling, single point]"
6,Cn1c(Cc2cccc3ccccc23)nnc1SCC(=O)N1CCN(c2cccc(Cl)c2)CC1,"inconclusive: 23.1 µM [falling, single point]"
7,CCOc1ccc(Nc2cc(C)c(C#N)c3nc4ccccc4n23)cc1,inactive
8,Cc1cccc(NCc2ccc(O)c3ncccc23)c1C,inactive
9,O=C(NCC1CCN(Cc2cccc(Cl)c2)CC1)C1CCCN(c2ncnc3c2nc2n3CCCCC2)C1 (stereo not given),"inconclusive: 32.6 µM [falling, partial curve, poor fit]"
10,CCOc1cc(CNCCCN2CCOCC2)ccc1OCC(=O)Nc1cccc2ccccc12,"inconclusive: 20.6 µM [falling, single point]"
11,CCC(=O)Nc1cccc(NC(=S)NC(=O)c2ccc(C)cc2)c1,inactive
12,CCOc1cc(CN2CCN(c3cccc(C(F)(F)F)c3)CC2)ccc1O,inactive
13,COc1ccccc1NC(=O)c1ccccc1NC(=O)c1cccs1,"inconclusive: 25.9 µM [falling, single point]"
14,CCCCCCCCCCCCCCCC[n+]1ccc(/C=N/O)cc1,inactive
15,O=C(O)c1cccc(CSc2nc(-c3ccc(Cl)cc3)cc(C(F)(F)F)n2)c1,"inconclusive: 29.1 µM [falling, single point]"
16,Cc1cc(C)c(S(=O)(=O)Nc2ccc(-c3ccc(N4CCCCC4)nn3)cc2)cc1C,"inconclusive: 23.1 µM [falling, single point]"
17,O=S(=O)(Nc1cc(Cl)ccc1-n1cncn1)c1cc(Br)ccc1Br,"inconclusive: 18.4 µM [falling, single point]"
18,Cc1cccc(S(=O)(=O)c2c(N)n(-c3ccccc3)c3nc4ccccc4nc23)c1,"inconclusive: 11.6 µM [falling, partial curve, poor fit]"
19,O=C(NNC(=O)C1CCCO1)c1ccc(Cl)cc1 (stereo not given),"inconclusive: 2.06 µM [falling, partial curve, poor fit]"
20,O=C(COC(=O)c1ccccc1Cl)NCCC1=CCCCC1,"inconclusive: 13 µM [activator, partial curve]"
21,CCN(CC(=O)NCc1ccc(F)cc1)C(=O)Cc1ccc(OC)cc1,inactive
22,CCCCc1ccc(NC(=O)N2CCN(c3cc(C)nc4ccccc34)CC2)c(C)c1,"inconclusive: 29.1 µM [falling, single point]"

row,Compound,Potency
1,CCOc1ccc(C(=O)Nc2cc(-c3nc4ccccc4[nH]3)ccc2Cl)cc1[N+](=O)[O-],"inconclusive: 20.6 µM [falling, single point]"
2,CCCN1CCN(CCCNC(=O)c2ccc3c(Cl)c4c(nc3c2)CCCC4)CC1,"inconclusive: 29.1 µM [falling, single point]"
3,O=C(NCCc1ccc(Cl)cc1)c1ccc2c(c1)N(Cc1ccccc1)C(=O)CS2,inactive
4,COc1ccccc1NC(=O)C1=C(C)Nc2nc(SCc3ccccc3)nn2C1c1cccs1 (stereo not given),inactive
5,O=C1N/C(=N\N=C\c2ccccn2)SC1Cc1cccc(SC(F)F)c1 (stereo not given),inactive
6,COc1ccccc1C(=O)N/C(=C\c1cn(S(=O)(=O)N(C)C)c2ccccc12)C(=O)NCCCN1CCOCC1,"inconclusive: 29.1 µM [activator, partial curve, poor fit]"
7,O=C(Nc1cccc(-c2nc3ccccc3[nH]2)c1)c1cccc(NC(=O)c2ccco2)c1,"inconclusive: 29.1 µM [falling, single point]"
8,COc1ccc(C(CC(=O)N2CCCCC2)c2c(OC)cc(OC)c3c(-c4ccccc4)cc(=O)oc23)cc1 (stereo not given),"inconclusive: 29.1 µM [falling, partial curve, poor fit]"
9,Cc1ccc(N=Nc2c(N)[nH]n3c(=O)cc(-c4ccccc4)nc23)cc1,"inconclusive: 23.1 µM [falling, single point]"
10,C(=N\Nc1nccc(-c2cccnc2)n1)/c1ccccc1,"inconclusive: 29.1 µM [activator, single point]"
11,N#Cc1cnn(Cc2ccccc2)c1/N=C/N1CCOCC1,inactive
12,COc1cccc(N=Nc2c(N)[nH]n3c(=O)c4c(nc23)CCCC4)c1,"inconclusive: 18.4 µM [falling, partial curve]"
13,COCCN(C(=O)COC(=O)/C=C/c1ccc(C(F)(F)F)cc1)c1c(N)n(Cc2ccccc2)c(=O)[nH]c1=O,inactive
14,CCCn1nnnc1NC(=O)c1ccc2ccccc2c1,"inconclusive: 25.9 µM [falling, partial curve, poor fit]"
15,Cc1ccc2nc(-c3ccccn3)cc(C(=O)NCCc3ccc(F)cc3)c2c1,"inconclusive: 18.4 µM [falling, partial curve, poor fit]"
16,Cc1ccc(CNC(=O)c2cn(C)c3ccc(S(=O)(=O)N4CCC(C)CC4)cc3c2=O)cc1,"inconclusive: 7.31 µM [activator, partial curve, poor fit]"
17,COc1ccc(OC)c(CNc2ncc(-c3ccc(Cl)cc3)n2C)c1,inactive
18,Cc1ccc(CNC(=O)CCCn2nc(C)n3c(cc4sccc43)c2=O)cc1,inactive
19,Cc1ccc(NC(=O)NCc2c(-n3cccc3)sc3c2CCCC3)c(Cl)c1,inactive
20,COc1ccc(/C=C2/SC(=S)N(CCCC(=O)N3CCN(C)CC3)C2=O)cc1,"inconclusive: 29.1 µM [falling, single point]"
21,NC(=O)C[C@H]1NC(=O)[C@H](CCC(=O)O)NC(=O)c2cc([N+](=O)[O-])cc(I)c2NCCC[C@@H](C(N)=O)NC1=O,"inconclusive: 32.6 µM [falling, partial curve, poor fit]"
22,COc1ccc(C(=O)c2no[n+]([O-])c2C(=O)c2ccc(OC)cc2)cc1,inactive

# Reprinted from the entries so far for reference:
row,Compound,Potency
14,CCCCCCCCCCCCCCCC[n+]1ccc(/C=N/O)cc1,inactive
15,O=C(O)c1cccc(CSc2nc(-c3ccc(Cl)cc3)cc(C(F)(F)F)n2)c1,"inconclusive: 29.1 µM [falling, single point]"
16,Cc1cc(C)c(S(=O)(=O)Nc2ccc(-c3ccc(N4CCCCC4)nn3)cc2)cc1C,"inconclusive: 23.1 µM [falling, single point]"

# Going on with the list:

row,Compound,Potency
1,CCN1CCN(c2ccc(S(=O)(=O)N3CCCCC3)cc2NC(=O)c2ccc([N+](=O)[O-])o2)CC1,"inconclusive: 29.1 µM [falling, single point]"
2,CCOc1ccc2[nH]c(=O)c(CN(Cc3cccs3)Cc3nnnn3C(C)(C)CC)cc2c1,"inconclusive: 16.4 µM [falling, single point]"
3,Cc1ccc(-c2nnn(CC(=O)N(Cc3ccccc3)C(C(=O)NC3CCCC3)c3ccncc3)n2)o1 (stereo not given),"inconclusive: 4.11 µM [falling, single point]"
4,CCCCn1c(NC(=O)c2ccc(Br)o2)c(S(=O)(=O)c2ccccc2)c2nc3ccccc3nc21,"inconclusive: 11.2 µM [falling, single point]"
5,CCOc1ccc(CCNC(=O)CN2C(=O)c3cccnc3Oc3ccc(Cl)cc32)cc1,"inconclusive: 20.6 µM [activator, partial curve, poor fit]"
6,Cc1ccccc1NC(=O)C1CCCN(S(=O)(=O)c2c(C)noc2C)C1 (stereo not given),"inconclusive: 23.1 µM [activator, partial curve, poor fit]"
7,CC(=O)N1c2ccc(S(=O)(=O)N3CCCCCC3)cc2CC1C(=O)NCc1ccccc1F (stereo not given),inactive
8,Cc1cc(C)nc(SCCS(=O)(=O)Cc2ccccc2)n1,"inconclusive: 29.1 µM [activator, single point]"
9,CCN(CC)c1ccc(NC(=O)C2CCC(CNc3c(N4CCCC4)c(=O)c3=O)CC2)c(C)c1 (stereo not given),"inconclusive: 29.1 µM [falling, single point]"
10,O=C(c1ccc(NC2=NC3CS(=O)(=O)CC3S2)cc1)N1CCN(c2ccc([N+](=O)[O-])cc2)CC1 (stereo not given),"inconclusive: 29.1 µM [falling, partial curve, poor fit]"
11,c1coc(CN(Cc2ccco2)c2ncnc3c2oc2ccccc23)c1,"inconclusive: 23.1 µM [falling, single point]"
12,CN(C)S(=O)(=O)c1ccc(N2CCN(S(=O)(=O)c3ccc(F)cc3)CC2)c(Cl)c1,inactive
13,CCOc1ccc(-c2cn3c(n2)sc2cc(C(=O)NCCc4ccc(OC)c(OC)c4)ccc23)cc1,inactive
14,COc1ccc(OC)c(-c2nn(-c3ccccc3)cc2C(=O)N2CCc3ccccc3C2)c1,"inconclusive: 20.6 µM [falling, single point]"
15,COc1ccc(CCNC(=O)CCn2c(=O)c3cccn3c3cccnc32)c(OC)c1OC,inactive
16,Oc1ccccc1C1=NN(c2ccccc2)C(c2ccccc2)C1 (stereo not given),"inconclusive: 29.1 µM [falling, single point]"
17,Cc1c(/C=N/NC(=O)CNc2ccccc2)c2ccccn2c1C(=O)c1ccccc1,"inconclusive: 29.1 µM [falling, single point]"
18,CCN(CC)S(=O)(=O)c1ccc(NC2CCN(Cc3ccccc3)CC2)nc1,inactive
19,CCOC(=O)C1=C(C)NC(C)=C(C(=O)OC)C1c1ccco1 (stereo not given),"inconclusive: 4.11 µM [activator, single point]"
20,Cc1ccc(C)c(CN2C(=O)c3ccccc3S(=O)c3ccc(C(=O)N4CCN(c5ccccn5)CC4)cc32)c1 (stereo not given),"inconclusive: 14.6 µM [falling, partial curve, poor fit]"
21,O=C(CN1C(=O)C(=O)N(C2CCCC2)C1=O)Nc1ccc(Cl)cc1C(F)(F)F,inactive
